# Assay results: PubChem BioAssay AID504467 (National Center for Advancing Translational Sciences (NCATS), 2011)
# The campaign covered roughly 330,000 compounds. About 7,700 (2.3%) were called active. Inconclusive results, whose numbers are uncertain, are shown with a selection of clear calls. The call rests on the fitted dose curve; in most records, active means well fitted inhibition curve with a large enough effect; inconclusive means small, poorly fitted or top-dose-only effect, or effect the other way; inactive means flat fitted curve, though single readings scatter. Where the call is inconclusive, the potency comes from a doubtful curve fit.
# Experiment: qHTS screen for small molecules that inhibit ELG1-dependent DNA repair in human embryonic kidney (HEK293T) cells expressing luciferase-tagged ELG1; further: nearly all actives have a fitted effect of over 55% in size
# Conditions: HEK293T ELG1-luciferase reporter, luminescence, 16 h, DNA damage induced by 5-fluorouridine; series mostly up to 46.1 µM
# Summary of the method: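 In this reporter screen, reduction of luminescence relative to DMSO vehicle indicated activity. Compounds and 5-fluorouridine were added together to 2,000 cells per well, incubated for 16 hr at 37 °C, then developed with ONE-Glo.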
# Potency means the concentration at half of the fitted maximal effect.
row,SMILES,Potency
1,COc1ccccc1N1CCN(C(=O)c2ccc3c(=O)n(Cc4ccc5c(c4)OCO5)c(=O)[nH]c3c2)CC1,"inconclusive: 16.4 µM [inhibitor, single point]"
2,Cc1ccc(S(=O)(=O)Oc2ccc(/C=N/NC(=O)c3cccnc3)cc2)cc1,inactive
3,Cc1c(C(=O)N(Cc2cccs2)C2CCS(=O)(=O)C2)oc2ccccc12 (stereo not given),"inconclusive: 16.4 µM [inhibitor, partial curve, poor fit]"
4,C[C@@H](NC(=O)c1nc[nH]c1C(=O)N(C)Cc1ccccc1)c1ccccc1,inactive
5,CC1CCN(C(=O)c2cccc(S(=O)(=O)N3CCCc4ccccc43)c2)CC1,inactive
6,Cc1cc2ccccc2cc1CN1CCOCC1,"inconclusive: 32.6 µM [inhibitor, single point]"
7,Cc1nn(C)cc1C(C(=O)NC1CCCCC1)N(CCc1ccccc1)C(=O)c1cnccn1 (stereo not given),"inconclusive: 23.1 µM [inhibitor, single point]"
8,CCOCCn1c(CN2CCN(c3cccc(Cl)c3)CC2)nc2c1c(=O)n(C)c(=O)n2C,"inconclusive: 25.9 µM [inhibitor, single point]"
9,Cc1ccc(C)c(N2CN(Cc3cccnc3)CNC2=S)c1,"inconclusive: 20.6 µM [activator, partial curve, poor fit]"
10,CCN1C(=O)[C@H]2[C@@H](c3ccc(-c4ccccc4)cc3)N[C@@](Cc3ccccc3)(C(=O)OC)[C@H]2C1=O,inactive
11,Cn1cccc1Cc1nnc(SCC(=O)Nc2nccs2)n1CCc1ccccc1,"inconclusive: 29.1 µM [inhibitor, partial curve, poor fit]"
12,O=C1/C(=C/c2cccc(O)c2)SC(=S)N1CC1CCCO1 (stereo not given),"inconclusive: 23.1 µM [activator, single point]"
13,CNC(=O)C1CCN(S(=O)(=O)c2c(C)noc2/C=C/c2ccc(OC)cc2)CC1,"inconclusive: 0.146 µM [activator, full curve]"
14,O=C(Nc1ccccn1)Nc1ccccc1Cl,"inconclusive: 5.17 µM [activator, full curve]"
15,CCN(CC(=O)NCc1ccc(F)cc1)C(=O)/C=C/c1ccc(S(=O)(=O)N(CC)CC)cc1,"inconclusive: 23.1 µM [inhibitor, partial curve]"
16,O=C(CSCc1ccccc1)Nc1ccccc1,"inconclusive: 23.1 µM [activator, partial curve]"
17,CNC(=O)c1cc2c(=O)n3cccc(C)c3nc2n(C(C)C)c1=N,inactive
18,COc1cc(C(=O)NCCSc2ccc(F)cc2)cc(OC)c1OC,"inconclusive: 1.16 µM [activator, single point]"
19,O=C(OC(c1ccccc1)c1nccc2ccccc12)c1cccc([N+](=O)[O-])c1 (stereo not given),"inconclusive: 20.6 µM [activator, partial curve]"
20,COc1ccc2[nH]c(=O)c(CN(c3ccccc3OC)S(=O)(=O)c3ccccc3)cc2c1,"inconclusive: 18.3 µM [inhibitor, single point]"

row,SMILES,Potency
1,COC(=O)[C@@]1(C)[C@H]2C(=O)N(Cc3ccccc3)C(=O)[C@H]2[C@H]2CN=C(SCC(=O)c3ccccc3)N21,"inconclusive: 29.1 µM [activator, partial curve, poor fit]"
2,CCN(CC(=O)Nc1ccccc1OC)C(=O)/C=C/c1cccs1,inactive
3,O=C(COC(=O)C1CCCCC1)Nc1ccc(N2CCCCC2)cc1,"inconclusive: 18.4 µM [activator, single point]"
4,COc1cc(-c2nnc(COC(=O)c3cc(C)nc4ccc(C)cc34)o2)cc(OC)c1OC,"inconclusive: 13 µM [inhibitor, partial curve, poor fit]"
5,CC(/C=N\NC(=O)c1cc(C)oc1C)=C\c1ccccc1,"inconclusive: 14.6 µM [activator, partial curve]"
6,CC1Cc2cc(/C(O)=C3/C(=O)C(=O)N(Cc4ccco4)C3c3cccs3)ccc2O1 (stereo not given),"inconclusive: 20.6 µM [activator, partial curve]"
7,COc1ccc(CCN2C(=O)CC(N3CCN(C/C=C/c4ccccc4)CC3)C2=O)cc1OC (stereo not given),"inconclusive: 11.6 µM [inhibitor, partial curve]"
8,O=C(c1cccc(S(=O)(=O)N2CCCCC2)c1)N1CCN(Cc2ccccc2)CC1,"inconclusive: 1.16 µM [inhibitor, single point]"
9,O=C(Nc1ccccc1)c1ccc(S(=O)(=O)N2CCC(C(=O)O)CC2)cc1,"inconclusive: 20.6 µM [activator, partial curve, poor fit]"
10,CCOc1ccc(CCNC(=O)C2CC(=O)N(CCc3ccccc3)C2)cc1OCC (stereo not given),inactive
11,O=C(NCC(c1cccs1)N1CCOCC1)c1ccc(Cl)c(S(=O)(=O)N2CCOCC2)c1 (stereo not given),"inconclusive: 29.1 µM [inhibitor, single point]"
12,Cc1cc(/C=C(/C#N)c2cccc(F)c2)c(C)n1-c1cccnc1,"inconclusive: 3.66 µM [activator, partial curve]"
13,Cc1nn(-c2ccccc2)c(Cl)c1C1C(C#N)=C(N)Oc2c1c(C)nn2-c1ccccc1 (stereo not given),inactive
14,COc1ccc2oc(C(=O)OCC(=O)Nc3ccc(C(=O)N(C)C)cc3)c(C)c2c1,"inconclusive: 14.6 µM [activator, single point]"
15,C[C@@H]1C=C[C@](Cc2ccccc2)(C(=O)NCC2CC2)N1C(=O)c1ccccc1,"inconclusive: 13 µM [activator, partial curve]"
16,CCOC(=O)c1sc2nc(SCC(=O)NCc3ccco3)n(Cc3ccccc3)c(=O)c2c1C,"inconclusive: 29.1 µM [activator, single point]"
17,CN(C)S(=O)(=O)c1cccc(NC(=O)COC(=O)CCC(=O)c2ccc(F)cc2)c1,inactive
18,COc1cc(/C=C/C(=O)OCC(=O)Nc2cccc(Oc3ccccc3)c2)ccc1O,"inconclusive: 29.1 µM [inhibitor, single point]"
19,COc1cc(NC(=S)NCc2cccnc2)c(OC)cc1Cl,"inconclusive: 5.8 µM [inhibitor, partial curve, poor fit]"
20,O=C(N/N=C1/CC2C=CCC12)c1ccco1 (stereo not given),"inconclusive: 23.1 µM [activator, single point]"

# Some of the entries above in another layout:
row | SMILES | Potency
17 | CN(C)S(=O)(=O)c1cccc(NC(=O)COC(=O)CCC(=O)c2ccc(F)cc2)c1 | inactive
18 | COc1cc(/C=C/C(=O)OCC(=O)Nc2cccc(Oc3ccccc3)c2)ccc1O | inconclusive: 29.1 µM [inhibitor, single point]
19 | COc1cc(NC(=S)NCc2cccnc2)c(OC)cc1Cl | inconclusive: 5.8 µM [inhibitor, partial curve, poor fit]
